From paper doi:10.1101/316448
No constants are given. Whether binding was seen depends on the method and setting. In cells and extracts the contact can be indirect. A result given as binding can be weak or reduced; the word gives no strength. Tags and fused reporters may be left off the sequences shown.

The chains behind the UniProt entries cited, without tags or fusion partners. Where a name states a change or a piece, a line headed by the entry shows the natural chain unless it says otherwise.
UniProt Q24025: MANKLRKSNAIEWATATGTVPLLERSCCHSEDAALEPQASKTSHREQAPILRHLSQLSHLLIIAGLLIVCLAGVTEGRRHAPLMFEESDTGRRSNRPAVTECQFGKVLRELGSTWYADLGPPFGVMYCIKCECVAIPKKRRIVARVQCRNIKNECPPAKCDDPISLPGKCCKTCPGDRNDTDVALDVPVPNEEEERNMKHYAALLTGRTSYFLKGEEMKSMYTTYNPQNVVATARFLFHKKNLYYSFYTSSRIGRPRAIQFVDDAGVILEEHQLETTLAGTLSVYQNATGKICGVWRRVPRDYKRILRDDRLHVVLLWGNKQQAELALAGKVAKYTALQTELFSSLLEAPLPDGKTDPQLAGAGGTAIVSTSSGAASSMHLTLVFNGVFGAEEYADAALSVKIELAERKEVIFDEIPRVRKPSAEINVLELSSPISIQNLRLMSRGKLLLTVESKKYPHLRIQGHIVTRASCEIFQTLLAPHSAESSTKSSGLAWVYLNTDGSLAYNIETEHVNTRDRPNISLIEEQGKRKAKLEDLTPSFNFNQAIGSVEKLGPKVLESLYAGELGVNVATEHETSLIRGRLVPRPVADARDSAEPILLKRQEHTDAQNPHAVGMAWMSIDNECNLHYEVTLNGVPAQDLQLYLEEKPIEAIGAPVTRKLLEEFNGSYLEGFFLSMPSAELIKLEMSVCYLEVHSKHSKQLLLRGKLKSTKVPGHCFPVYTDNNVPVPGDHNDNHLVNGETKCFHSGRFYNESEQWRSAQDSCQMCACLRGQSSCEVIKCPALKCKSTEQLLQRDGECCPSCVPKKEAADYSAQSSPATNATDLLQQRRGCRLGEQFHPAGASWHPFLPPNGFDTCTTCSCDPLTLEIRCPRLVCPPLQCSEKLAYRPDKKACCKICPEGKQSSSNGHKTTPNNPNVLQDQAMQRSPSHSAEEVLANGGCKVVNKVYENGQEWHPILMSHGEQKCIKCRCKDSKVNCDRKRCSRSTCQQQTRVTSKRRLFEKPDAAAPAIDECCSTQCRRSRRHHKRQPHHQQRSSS

What was measured:
Assay in all cases: co-IP
[1] = molecular target: SogN123-V5/His (Sog triple glycosylation mutant) (Drosophila melanogaster) (UniProt Q24025)
[2] = molecular target: N-terminal Supersog fragment of Sog (Drosophila melanogaster)
[3] = molecular target: SogN1-V5/His (Drosophila melanogaster) (UniProt Q24025)

Measured: binding

B1: Dpp-HA (Decapentaplegic) homodimer (ligand, UniProt P07713 457-588)
chain: DVSGGEGGGKGGRNKRQPRRPTRRKNHDDTCRRHSLYVDFSDVGWDDWIVAPLGYDAYYCHGKCPFPLADHFNSTNHAVVQTLVNNMNPGKVPKACCVPTQLDSVAMLYLNDQSTVVLKNYQEMTVVGCGCR
binds: all assays above
